Some entries share one result that the patent states for a list of compounds.
Tests used:
[1] = target: c-Met (HGF-stimulated autophosphorylation) in PC3 cells (Homo sapiens, UniProt P08581); experiment: c-Met cell-based autophosphorylation assay in PC3 cells; conditions: read-out: IC50, c-Met autophosphorylation in PC3 cells, HGF 250 ng/mL, IGEN readout
[2] = target: c-Met (HGF-stimulated autophosphorylation) in CT26 cells (Mus musculus, UniProt P16056); experiment: c-Met cell-based autophosphorylation assay in CT26 cells; conditions: read-out: IC50, c-Met autophosphorylation in CT26 cells, HGF 250 ng/mL, IGEN readout
[3] = target: T1, c-Met kinase domain (GST-cMet) (Homo sapiens, UniProt P08581); experiment: c-Met receptor assay (HTRF kinase assay); type: biochemical; conditions: GST-cMet (P) 1 nM, ATP 4 μM, gastrin 1 μM
T1 construct: A PCR product covering residues 1058-1365 of c-Met (c-Met kinase domain); made in house; host or cells: High5 insect cells, recombinant baculovirus (modified pFastBac1, BacToBac)

Chains of the proteins cited; added tags and fusions are not shown. Residues count along the entry.
UniProt P08581, 25-1390: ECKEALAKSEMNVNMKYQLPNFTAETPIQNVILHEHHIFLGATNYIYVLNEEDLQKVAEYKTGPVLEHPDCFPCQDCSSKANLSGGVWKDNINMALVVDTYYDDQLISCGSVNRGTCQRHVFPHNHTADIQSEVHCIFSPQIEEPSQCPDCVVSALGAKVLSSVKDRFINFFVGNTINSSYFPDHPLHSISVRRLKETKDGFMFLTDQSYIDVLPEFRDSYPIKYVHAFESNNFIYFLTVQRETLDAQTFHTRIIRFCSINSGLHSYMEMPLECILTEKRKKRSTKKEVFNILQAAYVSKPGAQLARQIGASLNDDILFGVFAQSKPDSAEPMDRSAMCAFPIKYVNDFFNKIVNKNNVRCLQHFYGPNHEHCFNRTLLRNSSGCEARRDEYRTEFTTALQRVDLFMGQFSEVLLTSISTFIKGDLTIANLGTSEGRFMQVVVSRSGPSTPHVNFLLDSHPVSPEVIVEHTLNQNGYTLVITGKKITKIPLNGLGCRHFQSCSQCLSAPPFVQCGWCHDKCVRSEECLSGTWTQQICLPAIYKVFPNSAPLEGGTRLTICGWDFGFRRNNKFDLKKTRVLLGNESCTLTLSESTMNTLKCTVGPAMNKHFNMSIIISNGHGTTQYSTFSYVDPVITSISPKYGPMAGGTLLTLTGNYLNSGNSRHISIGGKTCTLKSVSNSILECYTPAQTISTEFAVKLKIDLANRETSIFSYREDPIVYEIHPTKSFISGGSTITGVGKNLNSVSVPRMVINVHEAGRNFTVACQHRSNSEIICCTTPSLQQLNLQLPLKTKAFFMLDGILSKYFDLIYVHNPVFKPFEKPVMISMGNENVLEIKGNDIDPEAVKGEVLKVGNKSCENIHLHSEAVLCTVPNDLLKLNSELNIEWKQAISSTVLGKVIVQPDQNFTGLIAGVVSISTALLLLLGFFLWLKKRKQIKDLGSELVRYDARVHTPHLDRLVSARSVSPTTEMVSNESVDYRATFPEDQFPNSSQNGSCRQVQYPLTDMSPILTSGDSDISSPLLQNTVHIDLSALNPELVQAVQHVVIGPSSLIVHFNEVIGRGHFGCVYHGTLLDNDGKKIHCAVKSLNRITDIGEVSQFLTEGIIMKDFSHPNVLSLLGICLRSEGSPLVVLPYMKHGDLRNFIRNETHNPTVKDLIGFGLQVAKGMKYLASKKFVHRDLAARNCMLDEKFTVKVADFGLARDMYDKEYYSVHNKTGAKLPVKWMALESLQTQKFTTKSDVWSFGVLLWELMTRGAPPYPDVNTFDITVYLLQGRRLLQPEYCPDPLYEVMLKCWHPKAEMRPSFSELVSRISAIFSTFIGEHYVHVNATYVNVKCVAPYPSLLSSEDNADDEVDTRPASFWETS
UniProt P08581, 1058-1365: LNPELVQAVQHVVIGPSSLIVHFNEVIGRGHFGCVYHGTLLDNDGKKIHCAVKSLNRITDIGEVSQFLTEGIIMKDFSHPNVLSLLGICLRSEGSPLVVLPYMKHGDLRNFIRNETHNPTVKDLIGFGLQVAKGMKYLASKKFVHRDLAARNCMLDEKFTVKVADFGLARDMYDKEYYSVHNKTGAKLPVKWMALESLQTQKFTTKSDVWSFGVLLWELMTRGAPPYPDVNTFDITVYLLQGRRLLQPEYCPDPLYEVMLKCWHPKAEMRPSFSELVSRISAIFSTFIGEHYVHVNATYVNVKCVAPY
UniProt P16056, 25-1379: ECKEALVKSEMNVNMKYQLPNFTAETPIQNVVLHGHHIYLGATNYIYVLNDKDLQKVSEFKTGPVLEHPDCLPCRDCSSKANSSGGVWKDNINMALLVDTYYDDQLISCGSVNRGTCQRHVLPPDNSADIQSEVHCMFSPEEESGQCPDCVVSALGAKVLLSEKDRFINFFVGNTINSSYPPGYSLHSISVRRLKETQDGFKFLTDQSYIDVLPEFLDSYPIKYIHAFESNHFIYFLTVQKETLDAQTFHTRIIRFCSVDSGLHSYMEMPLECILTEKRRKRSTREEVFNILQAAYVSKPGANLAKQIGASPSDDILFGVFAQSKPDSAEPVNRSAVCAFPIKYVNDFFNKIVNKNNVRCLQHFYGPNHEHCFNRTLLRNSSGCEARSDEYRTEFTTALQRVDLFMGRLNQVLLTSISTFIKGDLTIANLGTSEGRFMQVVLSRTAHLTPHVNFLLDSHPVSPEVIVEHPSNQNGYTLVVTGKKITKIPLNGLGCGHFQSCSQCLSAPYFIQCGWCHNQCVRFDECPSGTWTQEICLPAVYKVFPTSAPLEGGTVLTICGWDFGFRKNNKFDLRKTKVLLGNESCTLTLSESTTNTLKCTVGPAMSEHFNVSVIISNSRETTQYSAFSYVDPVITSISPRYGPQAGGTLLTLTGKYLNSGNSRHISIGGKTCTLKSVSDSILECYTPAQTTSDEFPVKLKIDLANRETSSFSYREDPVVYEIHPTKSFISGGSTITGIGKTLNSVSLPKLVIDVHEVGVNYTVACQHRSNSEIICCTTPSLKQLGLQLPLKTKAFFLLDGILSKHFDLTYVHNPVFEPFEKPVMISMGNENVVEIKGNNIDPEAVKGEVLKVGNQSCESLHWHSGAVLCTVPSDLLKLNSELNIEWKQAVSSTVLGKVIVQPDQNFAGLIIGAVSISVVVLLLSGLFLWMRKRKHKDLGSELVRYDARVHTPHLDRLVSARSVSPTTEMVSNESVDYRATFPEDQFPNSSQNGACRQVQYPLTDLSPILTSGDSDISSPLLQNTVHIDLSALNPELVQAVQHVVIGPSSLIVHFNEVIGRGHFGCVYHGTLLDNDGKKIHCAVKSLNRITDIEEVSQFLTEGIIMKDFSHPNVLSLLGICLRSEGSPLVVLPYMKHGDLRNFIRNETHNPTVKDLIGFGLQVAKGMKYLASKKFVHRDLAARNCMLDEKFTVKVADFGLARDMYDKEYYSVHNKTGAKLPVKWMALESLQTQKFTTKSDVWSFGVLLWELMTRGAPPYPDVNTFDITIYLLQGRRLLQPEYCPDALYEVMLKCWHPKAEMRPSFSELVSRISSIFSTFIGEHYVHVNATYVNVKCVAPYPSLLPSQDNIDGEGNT

Row | Compound | IC50 [1] [µM] | IC50 [2] [µM] | IC50 [3] [µM]
1 | COc1cc2nccc(Oc3ccc(-c4ccc(Nc5cccc(F)c5)nn4)cc3F)c2cc1OC [Example 43f, 6-(4-((6,7-bis(methoxy)-4-quinolinyl)oxy)-3-fluorophenyl)-N-(3-fluorophenyl)-3-pyridazinamine] | < 1 | < 1 | 
2 | COc1cc2c(Oc3ccc(-c4cnc(Nc5ccc(F)cc5)n(C)c4=O)cc3F)ccnc2cc1OCCCN1CCOCC1 [Example 17, 5-(3-fluoro-4-((6-methoxy-7-(3-(4-morpholinyl)propoxy)-4-quinolinyl)oxy)phenyl)-2-((4-fluorophenyl)amino)-3-methyl-4(3H)-pyrimidinone] | < 1 | < 1 | < 0.5
3 | CCN1CCN(CCCOc2cc3nccc(Oc4ccc(-c5cnc(Cc6ccccc6)n(C)c5=O)cc4F)c3cc2OC)CC1 [Example 35, 5-(4-((7-(3-(4-ethyl-1-piperazinyl)propoxy)-6-methoxy-4-quinolinyl)oxy)-3-fluorophenyl)-3-methyl-2-(phenylmethyl)-4(3H)-pyrimidinone] | < 1 | < 1 | < 0.5
4 | COc1cc2nccc(Oc3ccc(-c4ccc(Nc5ccccc5Cl)nn4)cc3F)c2cc1OC [Example 43c, 6-(4-((6,7-bis(methoxy)-4-quinolinyl)oxy)-3-fluorophenyl)-N-(2-chlorophenyl)-3-pyridazinamine] | < 1 | < 1 | 
5 | COc1cc2c(Oc3ccc(-c4cnc(Nc5ccccc5)[nH]c4=O)cc3F)ccnc2cc1OCCCN1CCOCC1 [Example 37y, 5-(3-fluoro-4-((6-methoxy-7-((3-(4-morpholinyl)propyl)oxy)-4-quinolinyl)-oxy)phenyl)-2-(phenylamino)-4(3H)-pyrimidinone] | < 1 | < 1 | 
6 | COc1cc2c(Oc3ccc(-c4cnc(Nc5ccc(N(C)C)cc5)n(C)c4=O)cc3F)ccnc2cc1OCCCN1CCOCC1 [Example 20, 2-((4-(dimethylamino)phenyl)amino)-5-(3-fluoro-4-((6-methoxy-7-((3-(4-morpholinyl)propyl)oxy)-4-quinolinyl)oxy)phenyl)-3-methyl-4(3H)-pyrimidinone] | < 1 | < 1 | < 0.5
7 | COc1cc2c(Oc3ccc(-c4cnc(Cc5ccccc5)n(C)c4=O)cc3F)ccnc2cc1OC[C@H](O)CN1CCOCC1 [Example 8, 5-(3-fluoro-4-((7-(((2R)-2-hydroxy-3-(4-morpholinyl)-propyl)oxy)-6-methoxy-4-quinolinyl)oxy)phenyl)-3-methyl-2-(phenylmethyl)-4(3H)-pyrimidinone] | < 1 |  | < 0.5
8 | COc1cc2c(Oc3ccc(-c4cnc(Cc5ccccc5)[nH]c4=O)cc3F)ccnc2cc1OCCCN1CCOCC1 [Example 6, 5-(3-fluoro-4-((6-methoxy-7-(3-(4-morpholinyl)propoxy)-4-quinolinyl)oxy)phenyl)-2-(phenylmethyl)-4(3H)-pyrimidinone] | < 1 | < 1 | < 0.5
9 | COc1cc2c(Oc3ccc(N4C(=O)NC(Cc5ccccc5)C4=O)cc3F)ccnc2cc1OCCCN1CCOCC1 (stereo not shown) [Example 67, 5-Benzyl-3-{3-fluoro-4-[6-methoxy-7-(3-morpholin-4-yl-propoxy)-quinolin-4-yloxy]-phenyl}-imidazolidine-2,4-dione] | < 1 | < 1 | < 0.5
10 | COc1cc2c(Oc3ccc(-c4cnc(Nc5ccccc5)n(C)c4=O)cc3F)ccnc2cc1OCCCN1CCOCC1 [Example 22, 5-(3-fluoro-4-((6-methoxy-7-((3-(4-morpholinyl)propyl)oxy)-4-quinolinyl)oxy)phenyl)-3-methyl-2-(phenylamino)-4(3H)-pyrimidinone] | < 1 | < 1 | < 0.5
11 | COc1cc2c(Oc3ccc(-c4cnc(C(O)c5ccccc5)n(C)c4=O)cc3F)ccnc2cc1OCCCN1CCOCC1 (stereo not shown) [Example 37s, 5-(3-fluoro-4-((6-methoxy-7-((3-(4-morpholinyl)-propyl)oxy)-4-quinolinyl)oxy)phenyl)-2-(hydroxy(phenyl)methyl)-3-methyl-4(3H)-pyrimidinone] | < 1 | < 1 | 
12 | COc1cc2c(Oc3ccc(-c4cnc(NCC(C)(C)C)n(C)c4=O)cc3F)ccnc2cc1OCCCN1CCOCC1 [Example 21, 2-((2,2-dimethylpropyl)amino)-5-(3-fluoro-4-((6-methoxy-7-(3-(4-morpholinyl)propoxy)-4-quinolinyl)oxy)phenyl)-3-methyl-4(3H)-pyrimidinone] | < 1 | < 1 | < 0.5
13 | COc1cc2c(Oc3ccc(N4CC(Cc5ccccc5)CC4=O)cc3F)ccnc2cc1OCCCN1CCOCC1 (stereo not shown) [Example 80, 4-Benzyl-1-{3-fluoro-4-[6-methoxy-7-(3-morpholin-4-yl-propoxy)-quinolin-4-yloxy]-phenyl}-pyrrolidin-2-one] | < 1 | < 1 | < 0.5
14 | COc1cc2c(Oc3ccc(-c4cnc(Cc5ccccc5)n(C)c4=O)cc3F)ccnc2cc1OCCCN1CCOCC1 [Example 1, 2-Benzyl-5-{3-fluoro-4-[6-methoxy-7-(3-morpholin-4-yl-propoxy)-quinolin-4-yloxy]-phenyl}-3-methyl-3H-pyrimidin-4-one] | < 1 | < 1 | < 0.5
15 | CCCO[C@H](c1ccccc1)[C@H]1CC(=O)N(c2ccc(Oc3ccnc4cc(OC)c(OC)cc34)c(F)c2)C1 [Example 78, 1-[4-(6,7-Dimethoxy-quinolin-4-yloxy)-3-fluoro-phenyl)-4-(phenyl-propoxy-methyl)-pyrrolidin-2-one] | < 1 |  | < 0.5
16 | COc1cc2c(Oc3ccc(N4C(=O)CN(CCc5ccccc5)C4=O)cc3F)ccnc2cc1OCCCN1CCOCC1 [Example 75, 3-{3-Fluoro-4-[6-methoxy-7-(3-morpholin-4-yl-propoxy)-quinolin-4-yloxy]-phenyl}-1-phenethyl-imidazolidine-2,4-dione] | < 1 | < 1 | < 0.5
17 | COc1cc2c(Oc3ccc(-c4cnc(Cc5ccccc5)n(C)c4=O)cc3F)ccnc2cc1OCCCN1CCN(C)CC1 [Example 28, 5-(3-fluoro-4-((6-methoxy-7-(3-(4-methyl-1-piperazinyl)propoxy)-4-quinolinyl)oxy)phenyl)-3-methyl-2-(phenylmethyl)-4(3H)-pyrimidinone] |  | < 1 | 
18 | COc1cc2c(Oc3ccc(N4CC(C(OC)c5ccccc5)CC4=O)cc3F)ccnc2cc1OCCCN1CCOCC1 (stereo not shown) [Example 64, 1-{3-Fluoro-4-[6-methoxy-7-(3-morpholin-4-yl-propoxy)-quinolin-4-yloxy]-phenyl}-4-(methoxy-phenyl-methyl)-pyrrolidin-2-one] | < 1 | < 1 | < 0.5
19 | COc1cc2nccc(Oc3ccc(-c4cnc(Nc5ccccc5)[nH]c4=O)cc3F)c2cc1OC [Example 37ab, 5-(4-((6,7-bis(methoxy)-4-quinolinyl)oxy)-3-fluorophenyl)-2-(phenylamino)-4(3H)-pyrimidinone] | < 1 |  | 
20 | COc1cc2nccc(Oc3ccc(-c4cnc(Nc5ccc(F)cc5C)n(C)c4=O)cc3F)c2cc1OC [Example 37u, 5-(4-((6,7-bis(methoxy)-4-quinolinyl)-oxy)-3-fluorophenyl)-2-((4-fluoro-2-methylphenyl)amino)-3-methyl-4(3H)-pyrimidinone] | < 1 | < 1 | 
21 | COc1cc2c(Oc3ccc(N4C(=O)C(Cc5ccccc5)N(C)C4=O)cc3F)ccnc2cc1OCCCN1CCOCC1 (stereo not shown) [Example 73, 5-Benzyl-3-{3-fluoro-4-[6-methoxy-7-(3-morpholin-4-y1-propoxy)-quinolin-4-yloxy]-phenyl}-1-methyl-imidazolidine-2,4-dione] | < 1 | < 1 | < 0.5
22 | COc1cc2nccc(Oc3ccc(-c4cnc(Nc5ccccn5)n(C)c4=O)cc3F)c2cc1OC [Example 37d, 5-[4-(6,7-Dimethoxy-quinolin-4-yloxy)-3-fluoro-phenyl]-3-methyl-2-(pyridin-2-ylamino)-3H-pyrimidin-4-one] |  |  | < 0.5
23 | CCCOC(c1ccccc1)C1CC(=O)N(c2ccc(Oc3ccnc4cc(OC)c(OC)cc34)c(F)c2)C1 (stereo not shown) [Example 60, 1-(4-((6,7-bis(methoxy)-4-quinolinyl)oxy)-3-fluorophenyl)-4-(phenyl(propoxy)methyl)-2-pyrrolidinone] |  |  | < 0.5
24 | CCCO[C@H](c1ccccc1)[C@@H]1CC(=O)N(c2ccc(Oc3ccnc4cc(OC)c(OC)cc34)c(F)c2)C1 [Example 68, 1-[4-(6,7-Dimethoxy-quinolin-4-yloxy)-3-fluoro-phenyl]-4-(phenylpropoxy-methyl)-pyrrolidin-2-one] |  |  | < 0.5

Source: patent US7652009B2, “Substituted heterocycles and methods of use” (Amgem Inc., priority 2004, dated 2010)
